Reference: PubChem BioAssay AID686937 (Drosophila RNAi Screening Center, 2013)
Aim: 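Genes whose loss weakens secretory pathway function in fly cells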 (primary screen). Cells: Drosophila S2 cells expressing secreted horseradish peroxidase. Knock-down reagent: long dsRNA against Drosophila genes. Time to read-out: about 5.5 days (5 days dsRNA, then 12 h reporter induction). Treatment: reporter expression induced after 5 days of dsRNA, read 12 h later; inducer not stated. Detection: 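Chemiluminescent measurement of peroxidase in the medium 12 h after reporter induction, following 5 days of dsRNA, given as a z-score per plate; higher means more secretion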. Direction: z-score: higher = more reporter secreted into medium.
The screen tested about 23,000 reagents; below is an unselected part of those that have a named target and a result. 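Reduced-secretion tags in replicate 1 do not always agree with the z-scores; no criterion for assigning the tags was given.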 Names joined by + are all predicted targets of the reagent. The record does not give: the amount of reagent.

no.	gene	DRSC id	z-score, replicate 1	z-score, replicate 2	z-score, replicate 3	z-score, replicate 4	phenotype, replicate 1
1	Mal-A7 (GeneID 35829)	DRSC06077	0.49	0.2			
2	wit (GeneID 44096)	DRSC08741	0.14	0.31			
3	pwn (GeneID 44011)	DRSC06035	-0.3	-0.43	0.1	0.23	
4	dib (GeneID 45282)	DRSC08711	0.13	0.14			
5	CG6290 (GeneID 32827)	DRSC19979	0.27	0.41			
6	CG17294 (GeneID 34155)	DRSC02596	0.26	0.27			
7	CG4459 (GeneID 42377)	DRSC15582	0.57	0.62			
8	CG2955 (GeneID 33622)	DRSC00552	0.38	0.36			
9	Tango4 (GeneID 32168)	DRSC19786	-4.96	-2.34			reduced secretion
10	CG9338 (GeneID 35357)	DRSC03213	0.47	0.14			
11	unpg (GeneID 35942)	DRSC07713	0.13	0.19			
12	Hecw (GeneID 31905)	DRSC18261	0.44	0.56			
13	Hecw (GeneID 31905)	DRSC18276	0.35	0.77			
14	CG3939 (GeneID 31295)	DRSC18498	0.48	0.41			
15	CG10011 (GeneID 43387)	DRSC14174	0.28	0.35			
16	CG15357 (GeneID 50192)	DRSC00387	0.29	0.06			
17	sima (GeneID 43580)	DRSC17055	-0.36	-0.4			
18	CG2200 (GeneID 32258)	DRSC19840	0.27	0.39			
19	CG5139 (GeneID 33309)	DRSC00681	0.08	0.05			
20	amrt (GeneID 32342)	DRSC19378	0.41	0.65			
21	Ucp4A (GeneID 32764)	DRSC19996	0.26	0.42	0.07	-0.03	
22	CG13473 (GeneID 39603)	DRSC10017	0.41	0.3			
23	Apl (GeneID 59216)	DRSC10350	0.29	0.09			
24	tsr (GeneID 37841)	DRSC04718	-2.19	-3.71			reduced secretion
25	Vha26 (GeneID 40679)	DRSC12371	-0.13	-0.36			
26	Snap24 (GeneID 41193)	DRSC16864	0.3	0.52			
27	Nplp1 (GeneID 38003)	DRSC04370	0.16	-0.09			
28	CG42710 (GeneID 10178945)	DRSC01034	-0.02	0.29			
29	Task6 (GeneID 41671)	DRSC16530	0.18	0.33			
30	sick (GeneID 35277)	DRSC02090	-0.24	-0.54			
31	sick (GeneID 35277)	DRSC02300	0.1	0.13			
32	sick (GeneID 35277)	DRSC02301	0.49	0.38			
33	sick (GeneID 35277)	DRSC02302	0.45	0.31			
34	sick (GeneID 35277)	DRSC02303	0.66	0.32			
35	sick (GeneID 35277)	DRSC02306	0.69	0.63			
36	armi (GeneID 38427)	DRSC08193	0.28	0.25			
37	Brms1 (GeneID 32243)	DRSC19896	-0.94	-0.07			
38	CG42824 (GeneID 10178873)	DRSC13230	0.08	-0.02			
39	sun (GeneID 44046)	DRSC20140	-0.11	-0.26			
40	Acox57D-p (GeneID 37445)	DRSC04560	0.1	0.14			
41	Frq1 (GeneID 32797)	DRSC19961	0.15	0.5			
42	Trpml + CG42638	DRSC11032	0.06	-0.06			
43	Prat2 (GeneID 38753)	DRSC09692	0.11	0.28			
44	ppk23 (GeneID 32731)	DRSC20110	0.02	-0.38			
45	AstC-R1 (GeneID 40020)	DRSC10799	0.22	0.13			
46	Rga + asRNA:ASTR	DRSC12364	-0.01	0.14			
47	CG18335 (GeneID 36202)	DRSC06723	0.14	0.17			
48	CG32024 (GeneID 317828)	DRSC21883	0.39	0.26			
49	NimA (GeneID 318930)	DRSC01353	-0.37	0.52			
50	NimA (GeneID 318930)	DRSC22170	-0.33	-0.03			
51	stj (GeneID 36526)	DRSC06124	0.32	0.23			
52	ACXB (GeneID 53427)	DRSC00845	-1.71	-0.83			reduced secretion
53	qkr58E-3 (GeneID 37559)	DRSC04711	0.35	0.38			
54	Csk (GeneID 41398)	DRSC12861	0.31	0.46			
55	Csk (GeneID 41398)	DRSC15223	0.28	0.21			
56	CG3156 (GeneID 30994)	DRSC18503	0.5	0.37			

Part of the list above in another layout:
gene,DRSC id,"z-score, replicate 1","z-score, replicate 2","z-score, replicate 3","z-score, replicate 4","phenotype, replicate 1"
sun (GeneID 44046),DRSC20140,-0.11,-0.26,,,
Acox57D-p (GeneID 37445),DRSC04560,0.1,0.14,,,
Frq1 (GeneID 32797),DRSC19961,0.15,0.5,,,
Trpml + CG42638,DRSC11032,0.06,-0.06,,,
Prat2 (GeneID 38753),DRSC09692,0.11,0.28,,,
ppk23 (GeneID 32731),DRSC20110,0.02,-0.38,,,
AstC-R1 (GeneID 40020),DRSC10799,0.22,0.13,,,
Rga + asRNA:ASTR,DRSC12364,-0.01,0.14,,,
